Experimental data published in patent publication US12655436B2, “Import of unnatural or modified nucleoside triphosphates into cells via nucleic acid triphosphate transporters” (The Scripps Research Institute, priority 2014, dated 2026).

Experiment: Nucleotide extraction from cells for HPLC analysis: recovery and triphosphate decomposition
Set-up: species or system E. coli
Details: cytoplasmic fraction extraction for HPLC quantification
Description: To minimize the effect of the lysis and triphosphate extraction protocols on the decomposition of nucleoside triphosphate within the cell, the following extraction procedure was discovered that led to an unexpectedly highest recovery with and low extent of decomposition (Table 9). Cells were grown, washed, and then 5 nmol of either dNaMTP or d5SICSTP was added to the pellets, which were then subjected to various types of extractions including boiling water, hot ethanol, cold methanol, freeze and thaw, lysozyme, glass beads, NaOH, trichloroacetic acid (TCA) with Freon, and perchloric acid (PCA) with KOH. The recovery and composition of the control was quantified by HPLC. […] Pellets were resuspended in ice cold KPi (50 mM, 250 μl) before addition of NaOH to decrease dephosphorylation after cell lysis (Method 4).

## Cc1ccc2c(=S)n([C@H]3C[C@H](O)[C@@H](CO)O3)ccc2c1 [d5SICS]
  loss from the extraction step: 70%

## COc1cc2ccccc2cc1[C@H]1C[C@H](O)[C@@H](CO)O1 [dNaM]
  loss from the extraction step: 62%
